Experimental data: the supplement of paper PMC7666118
The list shows a part of the results.

The chains behind the UniProt entries cited, without tags or fusion partners. Where a name states a change or a piece, a line headed by the entry shows the natural chain unless it says otherwise.
UniProt P46939: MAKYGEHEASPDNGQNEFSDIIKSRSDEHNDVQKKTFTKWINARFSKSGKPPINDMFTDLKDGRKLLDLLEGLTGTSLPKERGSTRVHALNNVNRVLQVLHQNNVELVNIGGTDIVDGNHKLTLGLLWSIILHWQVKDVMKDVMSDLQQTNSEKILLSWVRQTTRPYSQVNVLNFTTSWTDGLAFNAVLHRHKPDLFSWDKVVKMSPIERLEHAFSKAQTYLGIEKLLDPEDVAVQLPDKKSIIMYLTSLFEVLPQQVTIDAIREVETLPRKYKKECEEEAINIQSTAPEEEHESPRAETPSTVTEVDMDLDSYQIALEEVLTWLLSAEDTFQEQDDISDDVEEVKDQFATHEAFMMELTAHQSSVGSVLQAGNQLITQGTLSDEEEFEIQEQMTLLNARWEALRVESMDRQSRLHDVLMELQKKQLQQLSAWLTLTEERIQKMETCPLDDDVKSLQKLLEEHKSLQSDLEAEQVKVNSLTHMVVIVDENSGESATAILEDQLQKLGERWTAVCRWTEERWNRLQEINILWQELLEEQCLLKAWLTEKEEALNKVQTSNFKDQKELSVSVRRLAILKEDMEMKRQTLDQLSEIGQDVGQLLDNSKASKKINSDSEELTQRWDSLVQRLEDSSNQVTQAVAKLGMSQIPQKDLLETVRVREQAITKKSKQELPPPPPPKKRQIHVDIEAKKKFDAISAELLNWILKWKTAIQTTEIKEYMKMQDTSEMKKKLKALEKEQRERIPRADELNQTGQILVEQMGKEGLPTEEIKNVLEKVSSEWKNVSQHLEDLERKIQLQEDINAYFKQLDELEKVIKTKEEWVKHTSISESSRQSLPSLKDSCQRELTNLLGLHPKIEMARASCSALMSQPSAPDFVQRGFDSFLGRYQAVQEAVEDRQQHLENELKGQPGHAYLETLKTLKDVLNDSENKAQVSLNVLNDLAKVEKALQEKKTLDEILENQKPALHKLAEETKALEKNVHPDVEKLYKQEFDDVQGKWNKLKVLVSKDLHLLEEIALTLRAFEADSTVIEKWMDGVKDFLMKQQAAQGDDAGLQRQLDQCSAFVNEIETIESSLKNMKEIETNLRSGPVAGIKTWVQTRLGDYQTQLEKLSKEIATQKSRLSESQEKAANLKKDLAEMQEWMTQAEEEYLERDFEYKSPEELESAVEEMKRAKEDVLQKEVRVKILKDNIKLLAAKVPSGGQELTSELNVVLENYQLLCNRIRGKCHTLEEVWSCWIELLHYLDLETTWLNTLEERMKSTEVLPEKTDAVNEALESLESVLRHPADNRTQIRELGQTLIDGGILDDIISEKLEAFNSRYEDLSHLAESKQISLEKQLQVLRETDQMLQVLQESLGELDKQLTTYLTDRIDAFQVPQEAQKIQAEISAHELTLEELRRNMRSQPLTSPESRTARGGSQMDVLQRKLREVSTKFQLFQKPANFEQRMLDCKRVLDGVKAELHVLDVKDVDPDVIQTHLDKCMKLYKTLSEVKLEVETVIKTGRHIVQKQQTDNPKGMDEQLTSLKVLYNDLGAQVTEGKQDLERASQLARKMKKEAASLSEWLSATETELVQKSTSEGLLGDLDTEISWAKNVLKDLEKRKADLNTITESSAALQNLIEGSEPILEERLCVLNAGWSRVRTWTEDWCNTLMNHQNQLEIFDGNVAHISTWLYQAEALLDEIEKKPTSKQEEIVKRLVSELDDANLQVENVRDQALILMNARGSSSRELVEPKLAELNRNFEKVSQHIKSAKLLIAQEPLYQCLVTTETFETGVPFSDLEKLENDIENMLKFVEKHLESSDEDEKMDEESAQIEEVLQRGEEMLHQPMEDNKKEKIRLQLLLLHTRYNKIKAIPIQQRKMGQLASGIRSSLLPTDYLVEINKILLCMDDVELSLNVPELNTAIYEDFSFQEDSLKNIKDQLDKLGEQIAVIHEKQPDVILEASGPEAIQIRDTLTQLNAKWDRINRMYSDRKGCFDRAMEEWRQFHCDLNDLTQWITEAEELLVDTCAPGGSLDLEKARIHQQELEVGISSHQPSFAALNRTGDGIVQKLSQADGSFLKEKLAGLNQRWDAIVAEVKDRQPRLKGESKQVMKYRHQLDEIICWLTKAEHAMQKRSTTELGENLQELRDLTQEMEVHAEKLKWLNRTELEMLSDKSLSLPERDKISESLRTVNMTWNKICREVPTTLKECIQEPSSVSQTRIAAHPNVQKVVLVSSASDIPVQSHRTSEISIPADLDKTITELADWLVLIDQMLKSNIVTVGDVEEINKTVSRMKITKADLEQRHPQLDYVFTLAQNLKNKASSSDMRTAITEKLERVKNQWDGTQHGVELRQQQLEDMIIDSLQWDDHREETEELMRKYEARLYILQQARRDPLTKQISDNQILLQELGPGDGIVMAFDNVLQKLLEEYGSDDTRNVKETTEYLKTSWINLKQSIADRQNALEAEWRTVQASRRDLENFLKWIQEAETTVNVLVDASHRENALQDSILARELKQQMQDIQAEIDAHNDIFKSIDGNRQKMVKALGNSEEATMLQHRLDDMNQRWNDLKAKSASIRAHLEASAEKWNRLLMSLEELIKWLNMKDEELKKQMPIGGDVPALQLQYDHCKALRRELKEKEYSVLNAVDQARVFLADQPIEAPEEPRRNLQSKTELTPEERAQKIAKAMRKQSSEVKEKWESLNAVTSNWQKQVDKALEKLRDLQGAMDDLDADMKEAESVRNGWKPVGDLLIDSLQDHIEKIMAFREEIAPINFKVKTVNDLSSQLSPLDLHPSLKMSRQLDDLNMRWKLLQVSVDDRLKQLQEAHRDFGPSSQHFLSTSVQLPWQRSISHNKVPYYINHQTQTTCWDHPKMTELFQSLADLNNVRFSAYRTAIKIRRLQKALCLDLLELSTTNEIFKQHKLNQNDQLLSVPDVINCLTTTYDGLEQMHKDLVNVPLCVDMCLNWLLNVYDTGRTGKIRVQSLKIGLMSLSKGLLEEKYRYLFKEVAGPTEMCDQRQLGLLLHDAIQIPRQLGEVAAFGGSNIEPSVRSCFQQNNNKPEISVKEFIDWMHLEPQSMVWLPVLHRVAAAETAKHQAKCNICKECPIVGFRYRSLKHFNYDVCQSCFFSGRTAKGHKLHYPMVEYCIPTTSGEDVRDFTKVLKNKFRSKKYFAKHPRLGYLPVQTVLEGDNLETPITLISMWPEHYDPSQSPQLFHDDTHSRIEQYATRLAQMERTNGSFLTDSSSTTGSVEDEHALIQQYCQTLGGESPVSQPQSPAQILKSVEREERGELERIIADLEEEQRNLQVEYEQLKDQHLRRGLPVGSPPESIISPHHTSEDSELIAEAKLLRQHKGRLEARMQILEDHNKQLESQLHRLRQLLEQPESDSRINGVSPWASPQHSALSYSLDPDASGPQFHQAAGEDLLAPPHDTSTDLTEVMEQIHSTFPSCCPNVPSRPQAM
UniProt Q9UGR2: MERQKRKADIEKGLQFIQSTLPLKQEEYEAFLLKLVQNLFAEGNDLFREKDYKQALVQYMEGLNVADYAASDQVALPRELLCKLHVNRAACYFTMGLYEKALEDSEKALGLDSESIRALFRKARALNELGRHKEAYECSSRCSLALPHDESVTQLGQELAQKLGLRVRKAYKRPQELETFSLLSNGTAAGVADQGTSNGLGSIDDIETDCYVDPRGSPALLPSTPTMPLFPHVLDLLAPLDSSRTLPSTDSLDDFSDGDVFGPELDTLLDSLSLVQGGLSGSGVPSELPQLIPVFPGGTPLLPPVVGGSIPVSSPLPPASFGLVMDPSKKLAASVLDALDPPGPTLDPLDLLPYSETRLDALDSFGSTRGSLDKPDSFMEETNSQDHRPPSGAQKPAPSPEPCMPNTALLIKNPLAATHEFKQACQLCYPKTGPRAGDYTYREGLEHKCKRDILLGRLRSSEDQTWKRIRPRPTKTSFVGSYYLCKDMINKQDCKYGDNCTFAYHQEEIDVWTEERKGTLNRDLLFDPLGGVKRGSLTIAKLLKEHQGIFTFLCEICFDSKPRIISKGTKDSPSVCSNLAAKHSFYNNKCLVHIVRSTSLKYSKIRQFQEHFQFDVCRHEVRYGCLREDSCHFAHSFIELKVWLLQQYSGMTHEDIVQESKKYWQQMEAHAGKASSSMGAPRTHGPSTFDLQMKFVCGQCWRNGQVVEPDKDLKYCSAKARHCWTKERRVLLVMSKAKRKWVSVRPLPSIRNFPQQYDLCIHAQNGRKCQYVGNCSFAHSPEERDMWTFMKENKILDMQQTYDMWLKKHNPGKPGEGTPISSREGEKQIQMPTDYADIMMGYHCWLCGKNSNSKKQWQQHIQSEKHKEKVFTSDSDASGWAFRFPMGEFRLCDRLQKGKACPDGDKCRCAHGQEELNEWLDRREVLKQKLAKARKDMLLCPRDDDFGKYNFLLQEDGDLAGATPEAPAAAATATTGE
UniProt Q9HAD4: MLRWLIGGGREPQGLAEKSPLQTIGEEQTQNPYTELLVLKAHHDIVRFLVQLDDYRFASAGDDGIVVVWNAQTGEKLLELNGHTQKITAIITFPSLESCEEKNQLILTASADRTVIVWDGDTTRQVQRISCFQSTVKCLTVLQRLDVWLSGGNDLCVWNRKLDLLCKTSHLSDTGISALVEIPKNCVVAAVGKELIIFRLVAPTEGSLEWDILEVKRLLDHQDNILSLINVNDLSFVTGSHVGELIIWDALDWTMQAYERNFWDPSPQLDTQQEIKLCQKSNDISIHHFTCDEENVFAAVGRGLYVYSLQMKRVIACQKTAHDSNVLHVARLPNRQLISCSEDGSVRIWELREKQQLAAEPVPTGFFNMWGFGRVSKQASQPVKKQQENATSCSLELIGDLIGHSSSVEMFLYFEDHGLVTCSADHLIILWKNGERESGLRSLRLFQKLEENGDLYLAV
UniProt P23381: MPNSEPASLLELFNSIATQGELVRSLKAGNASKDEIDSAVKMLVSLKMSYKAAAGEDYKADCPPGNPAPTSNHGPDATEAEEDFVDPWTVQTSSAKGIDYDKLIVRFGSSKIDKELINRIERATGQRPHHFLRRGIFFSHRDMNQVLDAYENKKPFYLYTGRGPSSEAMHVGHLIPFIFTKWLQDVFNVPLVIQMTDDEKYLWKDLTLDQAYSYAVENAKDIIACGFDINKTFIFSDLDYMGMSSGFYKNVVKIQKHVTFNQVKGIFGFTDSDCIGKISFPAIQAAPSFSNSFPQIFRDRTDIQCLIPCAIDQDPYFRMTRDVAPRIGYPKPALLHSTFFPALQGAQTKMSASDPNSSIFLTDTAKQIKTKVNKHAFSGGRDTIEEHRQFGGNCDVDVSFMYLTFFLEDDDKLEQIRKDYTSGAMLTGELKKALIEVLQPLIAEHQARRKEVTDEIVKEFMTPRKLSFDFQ
UniProt Q9H6R6: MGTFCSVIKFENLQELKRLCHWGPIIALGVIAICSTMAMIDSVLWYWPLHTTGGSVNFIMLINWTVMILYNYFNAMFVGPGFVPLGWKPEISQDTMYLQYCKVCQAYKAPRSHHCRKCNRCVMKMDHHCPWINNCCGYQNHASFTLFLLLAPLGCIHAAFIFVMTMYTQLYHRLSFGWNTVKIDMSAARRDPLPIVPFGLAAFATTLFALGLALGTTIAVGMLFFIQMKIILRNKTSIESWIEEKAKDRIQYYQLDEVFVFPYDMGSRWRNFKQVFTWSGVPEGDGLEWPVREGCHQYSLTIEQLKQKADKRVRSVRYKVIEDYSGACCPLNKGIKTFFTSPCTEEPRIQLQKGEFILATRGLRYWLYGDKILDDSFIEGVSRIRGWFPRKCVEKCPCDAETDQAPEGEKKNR
UniProt Q6RFH5: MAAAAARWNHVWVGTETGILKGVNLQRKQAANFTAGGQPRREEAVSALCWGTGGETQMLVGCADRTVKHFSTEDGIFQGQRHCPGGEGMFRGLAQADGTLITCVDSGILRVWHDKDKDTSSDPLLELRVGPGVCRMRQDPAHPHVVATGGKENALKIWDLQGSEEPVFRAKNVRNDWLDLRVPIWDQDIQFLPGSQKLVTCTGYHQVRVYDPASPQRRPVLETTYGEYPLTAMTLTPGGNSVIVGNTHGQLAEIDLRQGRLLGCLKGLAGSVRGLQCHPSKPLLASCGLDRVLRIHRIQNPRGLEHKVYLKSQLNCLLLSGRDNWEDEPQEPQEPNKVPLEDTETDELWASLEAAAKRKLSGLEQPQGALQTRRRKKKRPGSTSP
UniProt Q9NZC7: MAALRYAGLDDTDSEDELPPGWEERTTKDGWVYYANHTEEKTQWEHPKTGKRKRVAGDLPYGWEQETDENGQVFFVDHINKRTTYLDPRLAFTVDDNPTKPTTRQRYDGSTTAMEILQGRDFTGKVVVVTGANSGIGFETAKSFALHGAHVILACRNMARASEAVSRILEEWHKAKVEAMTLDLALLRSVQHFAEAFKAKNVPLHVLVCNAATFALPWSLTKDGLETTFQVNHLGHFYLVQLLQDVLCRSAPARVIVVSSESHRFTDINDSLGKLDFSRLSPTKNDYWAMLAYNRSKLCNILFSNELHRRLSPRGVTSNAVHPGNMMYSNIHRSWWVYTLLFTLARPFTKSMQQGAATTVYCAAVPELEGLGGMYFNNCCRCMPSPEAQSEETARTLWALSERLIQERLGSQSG

Compound: COc1ccc(Cn2ccc3ccc(C(=O)NO)cc32)cc1
Assay: dose-dependent thermal stabilisation call (2D-TPP, DLPTP, 10% FDR) (binary (1 = stabilised)); higher = stabilised by the compound
Conditions: system: HL-60 intact cells; concentration range 0.04-10 µM

Target | dose-dependent thermal stabilisation call
WDR54 (UniProt Q9H977) | inactive: 0
ZBED1 (UniProt O96006) | inactive: 0
WDR33 (UniProt Q9C0J8) | inactive: 0
ZNF259 (UniProt O75312) | inactive: 0
VPS28 (UniProt Q9UK41) | inactive: 0
ZMYND8 (UniProt Q9ULU4) | inactive: 0
UTRN (UniProt P46939) | inactive: 0
ZDHHC3 (UniProt Q9NYG2) | inactive: 0
WDR19 (UniProt Q8NEZ3) | inactive: 0
WDR37 (UniProt Q9Y2I8) | inactive: 0
ZFAND2B (UniProt Q8WV99) | inactive: 0
XPO1 (UniProt O14980) | inactive: 0
ZBTB11 (UniProt O95625) | inactive: 0
VDAC1 (UniProt P21796) | inactive: 0
YBX1 (UniProt P67809) | inactive: 0
YLPM1 (UniProt P49750) | inactive: 0
WAS (UniProt P42768) | inactive: 0
ZC3H7B (UniProt Q9UGR2) | inactive: 0
YWHAH (UniProt Q04917) | inactive: 0

A few values from the list:
Entry of YWHAH (UniProt Q04917) under dose-dependent thermal stabilisation call: inactive: 0
Entry of ZBED1 (UniProt O96006) under dose-dependent thermal stabilisation call: inactive: 0

(next part)

Target | dose-dependent thermal stabilisation call
WDR41 (UniProt Q9HAD4) | inactive: 0
WARS (UniProt P23381) | inactive: 0
ZBTB8OS (UniProt Q8IWT0) | inactive: 0
XRN2 (UniProt Q9H0D6) | inactive: 0
UVRAG (UniProt Q9P2Y5) | inactive: 0
ZDHHC6 (UniProt Q9H6R6) | inactive: 0
WDR74 (UniProt Q6RFH5) | inactive: 0
YTHDF2 (UniProt Q9Y5A9) | inactive: 0
WDR92 (UniProt Q96MX6) | inactive: 0
ZFAND5 (UniProt O76080) | inactive: 0
XTP3TPA (UniProt Q9H773) | inactive: 0
VAV1 (UniProt P15498) | inactive: 0
ZC3H18 (UniProt Q86VM9) | inactive: 0
WWOX (UniProt Q9NZC7) | inactive: 0
ZCCHC8 (UniProt Q6NZY4) | inactive: 0
YOD1 (UniProt Q5VVQ6) | inactive: 0
VISA (UniProt Q7Z434) | inactive: 0
VTA1 (UniProt Q9NP79) | inactive: 0
